Laboratory results taken from patent US20070072904A1, “PPAR active compounds” (priority 2005, published 2007).
For some of these results: At least one compound was matched to its structure with a doubt left. Some of these results come from one statement about several compounds together.

Tests used:
PPARα = molecular target: T1, PPARα (Homo sapiens, UniProt Q07869); details: cited from earlier work
T1 sequence (Q07869 1-468): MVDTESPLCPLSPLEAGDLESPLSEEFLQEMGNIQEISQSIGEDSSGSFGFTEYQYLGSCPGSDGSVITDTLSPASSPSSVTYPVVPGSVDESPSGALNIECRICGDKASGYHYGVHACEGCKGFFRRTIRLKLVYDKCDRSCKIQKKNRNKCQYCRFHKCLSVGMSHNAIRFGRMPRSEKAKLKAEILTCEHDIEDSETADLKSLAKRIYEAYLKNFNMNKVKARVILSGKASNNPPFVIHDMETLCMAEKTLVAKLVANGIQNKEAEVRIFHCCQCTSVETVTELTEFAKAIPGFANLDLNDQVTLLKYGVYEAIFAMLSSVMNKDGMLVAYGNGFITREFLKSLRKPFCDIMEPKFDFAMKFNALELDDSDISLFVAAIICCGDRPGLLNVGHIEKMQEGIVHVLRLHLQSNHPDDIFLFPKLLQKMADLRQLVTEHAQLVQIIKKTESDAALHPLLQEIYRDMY

PPARα, PPARγ and PPARδ = assay: PPAR activity assays: biochemical assay of Example 9 or cell based assay of Example 10, at least one of the PPARs; details: read-out: EC50 in at least one of PPARα, PPARγ and PPARδ activity assays; either biochemical assay of Example 9 or cell based assay of Example 10; at least one of the PPARs

Row | SMILES | selectivity of PPARα activation over PPARγ (PPARα) | EC50 (PPARα, PPARγ and PPARδ)
1 | CCOC(=O)C(C)(C)Oc1ccc(Cl)cc1 [Clofibrate, clofibrate] | 10 fold | –
2 | CCOc1ccc2c(c1)c(CCC(=O)O)cn2S(=O)(=O)c1ccc(-c2ccc(OC)nc2OC)s1 [Compound P-0463, 3-{1-[5-(2,6-Dimethoxy-pyridin-3-yl)-thiophene-2-sulfonyl]-5-ethoxy-1H-indol-3-yl}-propionic acid] | – | ≤ 1000 nM
3 | CCOc1ccc2c(c1)c(CCC(=O)O)cn2S(=O)(=O)c1ccc(-c2cn[nH]c2)s1 [Compound P-0451, 3-{5-Ethoxy-1-[5-(1 H-pyrazol-4-yl)-thiophene-2-sulfonyl]-1H-indol-3-yl}-propionic acid] | – | ≤ 1000 nM
4 | COc1ccc2c(c1)c(CCC(=O)O)cn2S(=O)(=O)c1cc(C)sc1C [Compound P-0158, 3-[1-(2,5-Dimethyl-thiophene-3-sulfonyl)-5-methoxy-1H-indol-3-yl]-propionic acid] | – | ≤ 1000 nM
